Measured values from PubChem BioAssay AID493014 (National Center for Advancing Translational Sciences (NCATS), 2011).
Some of the results follow. These are further read-outs of the screen, such as a control signal, another cell line or another target. No call is given for them. The list favours compounds with an active or inconclusive main result. The note in brackets gives the kind of curve behind each potency; many fits are weak.

Assay: qHTS Assay to Find Inhibitors of Chronic Active B-Cell Receptor Signaling
Settings: ABC-DLBCL IkBa-CBG/CBR reporter, luminescence ratio (green luciferase fused to IkBa over red control in TMD8 lymphoma cells), 4 h
Outline: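 TMD8 ABC-DLBCL cells carrying doxycycline-inducible green luciferase fused to IkappaBalpha plus unfused red luciferase were exposed to compounds (up to 46 uM) for 4 hrs at 37C. Activity came from the overlap-corrected green/red luminescence ratio.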

[1] = measured here: CBR red luminescence, cell number
[2] = measured here: IkBa-CBG green luminescence

Row | Compound | AC50 [1] | AC50 [2]
1 | C/C(=N\NC(=O)c1cc(Br)ccc1O)c1cccs1 | 0.251 µM [falling, full curve] | 
2 | COc1ccc(-n2cc(C(=O)c3ccccc3O)cn2)cc1 | 5.62 µM [falling, partial curve] | 
3 | CCOC(=O)N1CCC(NC(=O)CN2C(=O)C(CC)Oc3ccc(C)cc32)CC1 (stereo not drawn) |  | 6.51 µM [rising, partial curve, poor fit]
4 | Cc1ccc(C(O)(C(=O)NN(C(=O)c2ccccc2)c2ccccc2)c2ccc(C)cc2)cc1 | 10.3 µM [falling, partial curve, poor fit] | 
5 | O=C(CSc1nc(C2CC2)nc2ccccc12)N1CCCCC1 | 35.5 µM [falling, single point] | 
6 | Cc1c(-c2ccccc2)c(=O)oc2cc(O)ccc12 | 11.2 µM [rising, partial curve] | 
7 | CCOC(=O)c1c(NC(=O)/C=C/C(=O)O)sc(C)c1-c1ccc(Cl)cc1 | 8.91 µM [falling, partial curve, poor fit] | 
8 | O=C(O)C=C(Br)Br | 35.5 µM [falling, partial curve, poor fit] | 
9 | O=C(CSc1ncn[nH]1)Nc1ccccc1Sc1ccccc1 | 0.164 µM [falling, full curve, poor fit] | 
10 | CCN1C(=O)/C(=C/c2ccc(C)s2)NC1=S | 5.8 µM [rising, partial curve, poor fit] | 
11 | CC(=O)c1c(C)nc2ccc([N+](=O)[O-])cc2c1-c1ccccc1 | 35.5 µM [falling, single point] | 
12 | COc1ccc(C2CC(=O)Nc3ccccc3S2(=O)=O)cc1OC (stereo not drawn) | 25.1 µM [falling, single point] | 
13 | O=C(Nc1ccc2ccccc2n1)c1ccccc1 | 5.01 µM [falling, full curve] | 
14 | CCOC(=O)c1ccc(NC(=O)CN2C(=O)CN(C(C)=O)C2=S)cc1 | 11.2 µM [falling, partial curve, poor fit] | 
15 | CCCSCC(=O)Nc1ncc2c(n1)-c1ccccc1CC2 | 12.6 µM [falling, single point] | 
16 | CC(=O)c1cccc(NC(=O)c2ccc(Br)o2)c1 | 2.82 µM [rising, single point] | 
17 | CC(C)c1ccc(NCCC(=O)c2cccs2)cc1 | 1.64 µM [rising, full curve] | 
18 | Cc1cccc(NC(=O)c2sc3nc(-c4ccccc4)cn3c2C)n1 | 18.4 µM [falling, single point] | 
19 | O=C(O)c1ccc(NC(=S)NC(=O)c2ccc(-c3ccccc3)cc2)cc1 | 7.08 µM [falling, partial curve] | 
20 | Cc1ccnc2c1ccc1ccccc12 | 2 µM [rising, partial curve] | 
21 | COc1ccc(NC(=S)N(CCc2ccc(OC)c(OC)c2)Cc2ccccn2)cc1 | 20 µM [rising, single point] | 

Row | Compound | AC50 [1] | AC50 [2]
22 | O=C(Nc1c2c(nn1-c1ccc(Cl)cc1)CS(=O)(=O)C2)c1ccccc1F | 11.2 µM [falling, single point] | 
23 | Cc1ccc(C(O)(C(=O)NNc2ccc3ccccc3n2)c2ccc(C)cc2)cc1 | 29.1 µM [rising, single point] | 
24 | CCCC1=NN(c2ccc([N+](=O)[O-])cc2)C(=O)/C1=C\N(C)C | 16.4 µM [falling, single point] | 
25 | N#Cc1ccc(Nc2nc(-c3ccc(O)cc3O)cs2)cc1C(F)(F)F | 20.6 µM [falling, single point] | 29.1 µM [rising, partial curve, poor fit]
26 | OCC1(CCOc2ccccc2)CCN(Cc2cn[nH]c2-c2ccc(F)cc2)CC1 | 14.1 µM [falling, partial curve, poor fit] | 
27 | Fc1ccc(Cn2c(-c3cccc(Br)c3)nc3ccccc32)cc1 | 1.41 µM [falling, full curve, poor fit] | 
28 | CC(=O)/C(N=Nc1ccc2c(c1)OCO2)=C(\C)O | 18.4 µM [rising, partial curve, poor fit] | 
29 | O=c1[nH]nc(SCc2cc(Cl)ccc2Cl)c(=O)[nH]1 | 35.5 µM [rising, single point] | 
30 | CCN(CC)CCOC(=O)c1ccc(NC(=O)CCCN2C(=O)S/C(=C/c3ccc(OC)cc3)C2=S)cc1 | 0.501 µM [falling, full curve, poor fit] | 
31 | CCCCNC(=O)COc1ccccc1[N+](=O)[O-] | 11.6 µM [rising, partial curve, poor fit] | 
32 | O=C(Nc1nnc(-c2ccco2)o1)c1ccc(N2C(=O)CCC2=O)cc1 | 15.8 µM [falling, partial curve, poor fit] | 
33 | O=[N+]([O-])c1ccccc1-c1ccc(C(=S)N2CCN(c3ccccc3)CC2)o1 | 22.4 µM [rising, single point] | 
34 | CC(C)(CN=C1NS(=O)(=O)c2ccccc21)CNC(=O)c1ccccc1 | 35.5 µM [falling, partial curve, poor fit] | 
35 | CCOC(=O)c1ccc(NC(=S)N2CCCC(C(=O)N3CCCC3)C2)cc1 (stereo not drawn) | 5.01 µM [falling, partial curve] | 
36 | Cc1ccc2c(c1)[C@H]1[C@H](CO2)[C@H](c2ccccc2)[C@]2(C)C(=O)Nc3cc(Cl)ccc3C(=O)N12 | 3.66 µM [falling, full curve] | 
37 | O=C(CCCN1C(=O)/C(=C\c2ccccc2)SC1=S)Nc1ccc(C(=O)O)cc1 | 2.24 µM [falling, full curve] | 
38 | O=C(CCN1C(=O)/C(=C/c2ccccc2)SC1=S)NCCc1ccc(O)cc1 | 35.5 µM [rising, single point] | 
39 | CCOc1ccc(Nc2cc(C)nc(-n3nc(C)cc3C)n2)cc1 | 3.98 µM [rising, full curve, poor fit] | 8.91 µM [falling, partial curve]
40 | COc1ccc(S(=O)(=O)N(C(C)=O)c2ccc(OC(C)=O)c3ccccc23)cc1[N+](=O)[O-] | 18.4 µM [falling, single point] | 
41 | Cc1ccc(C(=O)c2c(NC(=O)CSc3nnc(N)s3)sc3c2CCCC3)cc1 | 11.6 µM [falling, partial curve] | 
42 | Brc1ccc(-c2csc(/N=C/N3CCCC3)n2)cc1 | 1 µM [rising, full curve, poor fit] | 

Row | Compound | AC50 [1] | AC50 [2]
43 | COc1ccc(NC(=O)c2cccc3c2C(=O)c2ccc(-c4cnc(OC)nc4)cc2S3(=O)=O)cc1 | 2.06 µM [falling, full curve, poor fit] | 
44 | O=C(Nc1ccc2oc(-c3ccccc3F)nc2c1)c1ccc2c(c1)OCCO2 | 10 µM [falling, partial curve, poor fit] | 
45 | COc1cccc(C(=O)NN2C(=O)C3C4C=CC(O4)C3C2=O)c1 (stereo not drawn) | 11.6 µM [falling, partial curve, poor fit] | 
46 | Cc1cc(N/N=C/c2ccccc2Cl)nc(NCc2ccccc2)n1 | 29.1 µM [falling, single point] | 
47 | Cc1cccc(C)c1NC(=O)CCS(=O)(=O)c1cccc2nsnc12 | 25.9 µM [rising, single point] | 
48 | O=C(CS(=O)(=O)c1cn(CC(=O)N2CCOCC2)c2ccccc12)Nc1ccccc1F | 7.08 µM [falling, partial curve, poor fit] | 
49 | CSc1ccc(NC(=O)NCc2ccccc2)cc1 | 2.24 µM [falling, full curve] | 
50 | O=C(Nc1ccc(-c2nnn(CC(=O)N3CCN(C(=O)c4ccco4)CC3)n2)cc1)c1ccc(F)cc1 | 17.8 µM [falling, single point] | 
51 | O=C(CCC1CCCC1)NC1CCCCC1 | 0.82 µM [falling, full curve, poor fit] | 
52 | O=C(NN=C1CCCC1)c1ccccc1O | 2 µM [falling, full curve] | 
53 | CCOc1ccccc1NC(=O)c1nc2nc(C)cc(C(F)F)n2n1 | 3.98 µM [falling, partial curve, poor fit] | 
54 | O=C(Nc1ccc2nc(-c3cccs3)[nH]c2c1)c1cccs1 | 18.4 µM [falling, partial curve, poor fit] | 9.2 µM [rising, partial curve, poor fit]
55 | COc1ccc(S(=O)(=O)Nc2ccccc2OC)cc1NC(=O)c1cc2ccccc2oc1=O | 29.1 µM [falling, single point] | 
56 | O=S(=O)(NCc1nc(-c2ccccc2)no1)c1ccc(F)cc1 | 3.55 µM [rising, partial curve, poor fit] | 
57 | COc1ccc2c(c1)cc(C)c1nnc(SCC(=O)N3CCN(C(=O)c4ccco4)CC3)n12 | 14.1 µM [rising, partial curve, poor fit] | 
58 | CC(C)Cc1nnc(NC(=O)C2CCCC2)s1 | 3.55 µM [rising, partial curve] | 6.31 µM [falling, single point]
59 | COc1cc(C(CC(=O)Nc2cccc(C)n2)N2Cc3ccccc3C2=O)cc(OC)c1OC (stereo not drawn) | 3.98 µM [rising, full curve, poor fit] | 
60 | COc1ccc(Cl)cc1N1C(=O)/C(=C\c2sccc2C)N=C1SCC(=O)NC1CC1 | 18.4 µM [falling, single point] | 
61 | Cc1cnc(NC(=O)c2cccs2)s1 | 4.47 µM [falling, partial curve, poor fit] | 
62 | COc1cc2c(cc1OC)C(SC)=NC(C)(C)C2 |  | 18.4 µM [falling, partial curve, poor fit]
63 | Oc1ccc(Cl)cc1/C=C/c1ccc2cccc(O)c2n1 | 11.2 µM [rising, partial curve] | 28.2 µM [falling, single point]

Single records, as listed above.
`O=S(=O)(NCc1nc(-c2ccccc2)no1)c1ccc(F)cc1` is entered as AC50 [1]: 3.55 µM [rising, partial curve, poor fit]
`COc1ccc(S(=O)(=O)Nc2ccccc2OC)cc1NC(=O)c1cc2ccccc2oc1=O` is entered as AC50 [1]: 29.1 µM [falling, single point]
`O=C(Nc1ccc2oc(-c3ccccc3F)nc2c1)c1ccc2c(c1)OCCO2` is entered as AC50 [1]: 10 µM [falling, partial curve, poor fit]
`Cc1cc(N/N=C/c2ccccc2Cl)nc(NCc2ccccc2)n1` is entered as AC50 [1]: 29.1 µM [falling, single point]
